# Laboratory results from US20030232325A1.
# By UniProt entry, the sequences of proteins in these tests, tags left out. Where a name states a change or a piece, a line headed by the entry shows the natural chain unless it says otherwise.
# UniProt P03496: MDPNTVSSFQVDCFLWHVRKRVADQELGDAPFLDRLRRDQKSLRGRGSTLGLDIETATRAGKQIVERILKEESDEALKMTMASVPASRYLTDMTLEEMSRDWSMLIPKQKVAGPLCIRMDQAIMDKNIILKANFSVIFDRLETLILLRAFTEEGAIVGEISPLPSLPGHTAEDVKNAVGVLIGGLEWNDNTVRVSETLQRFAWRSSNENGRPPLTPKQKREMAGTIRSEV
# Results are given in words; binding and its absence hold for the method and conditions named. Some results given as binding are weak or reduced against the parent protein; the word gives no strength. Sequences can lack the tags named with a protein.
# B1: GST-NS1-BP fusion protein, which carries amino acids 347 to 619 of NS1-BP (protein)
# chain: IEKPMSPMQYARSGLGTAEMNGKLIAAGGYNREECLRTVECYNPHTDHWSFLAPMRTPRARFQMAVLMGQLYVVGGSNGHSDDLSCGEMYDSNIDDWIPVPELRTNRCNAGVCALNGKLYIVGGSDPYGQKGLKNCDVFDPVTKLWTSCAPLNIRRHQSAVCELGGYLYIIGGAESWNCLNTVERYNPENNTWTLIAPMNVARRGAGVAVLNGKLFVCGGFDGSHAISCVEMYDPTRNEWKMMGHMTSPRSNAGIATVGNTIYAVEDSMAMNF
# How the values were obtained:
# [1] = molecular target: NS1 protein of influenza A virus synthesized in vitro from pcDNA3-NS1 (coupled transcription/transla (influenza A virus) (UniProt P03496)); test: glutathione Sepharose pull-down of in vitro translated 35S-NS1
# [2] = molecular target: NS1 protein of influenza A virus synthesized in vitro from pcDNA3-NS1 (coupled transcription/transla (influenza A virus) (UniProt P03496)); test: glutathione Sepharose pull-down
binder,measurement,setting,value
B1,binding,[1],binds
same,binding,[2],binds
